Measurements: PMC10259393, “The structural basis of the multi-step allosteric activation of Aurora B kinase” (eLife, 2023)
No constants are given. Whether binding was seen depends on the method and setting. Some results given as binding are weak or reduced against the parent protein; the word gives no strength.

By UniProt entry, the sequences of proteins in these tests, tags left out. Where a name states a change or a piece, a line headed by the entry shows the natural chain unless it says otherwise. Chains listed by the source or under a name are the forms on record and can include a tag or linker. Residues count along the entry.
IN-box (790-856 aa) of INCENP from X. laevis, unphosphorylated, as in [Aurora B/IN-box]^no-P (O13024, residues 790-856): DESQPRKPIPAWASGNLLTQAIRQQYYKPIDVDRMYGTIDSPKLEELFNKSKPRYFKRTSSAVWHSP
IN-box (790-844 aa; IN-box^ΔC) fused to the N-terminus of the Mxe intein-chitin binding domain protein (O13024, residues 790-844): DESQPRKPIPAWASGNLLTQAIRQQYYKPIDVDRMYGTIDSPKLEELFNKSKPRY
UniProt Q6DE08: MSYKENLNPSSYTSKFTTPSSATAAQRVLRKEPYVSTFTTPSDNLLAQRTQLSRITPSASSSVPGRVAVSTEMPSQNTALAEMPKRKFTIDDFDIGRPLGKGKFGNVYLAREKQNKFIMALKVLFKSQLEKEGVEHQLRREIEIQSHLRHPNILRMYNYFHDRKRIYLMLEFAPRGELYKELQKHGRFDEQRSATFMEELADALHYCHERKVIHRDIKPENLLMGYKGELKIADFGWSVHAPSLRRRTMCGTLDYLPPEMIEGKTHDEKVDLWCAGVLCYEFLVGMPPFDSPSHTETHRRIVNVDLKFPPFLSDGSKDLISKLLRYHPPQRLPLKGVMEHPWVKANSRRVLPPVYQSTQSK

Assays:
[1] = target: IN-box (790-844 aa; IN-box^ΔC) fused to the N-terminus of the Mxe intein-chitin binding domain protein (X. laevis) (UniProt O13024); test: co-purification; co-expressed in E. coli; IMAC, removal of 6xHis-GB1 from Aurora B by TEV, then held on chitin beads by the Mxe intein-chitin binding domain on IN-box^ΔC; eluted by overnight incubation with 50 mM MESNA
[2] = target: IN-box (790-856 aa) of INCENP from X. laevis, phosphorylated at Ser849 and Ser850 of the TSS motif, as in [Aurora B/IN-box]^all-P (X. laevis) (UniProt O13024); test: mass photometry; purified enzyme complex kept at 100 nM and diluted to 10 nM immediately before the measurement; 300 mM NaCl, 25 mM HEPES pH 7.5, 2 mM DTT; Refeyn Two MP; both purified
[3] = target: IN-box (790-856 aa) of INCENP from X. laevis, unphosphorylated, as in [Aurora B/IN-box]^no-P (X. laevis) (UniProt O13024); test: as above

| binding [1] | Substance | also measured |
| --- | --- | --- |
| binds | Aurora B (59-361 aa) from X. laevis, dephosphorylated, of the [Aurora B/IN-box]^IN-ΔC construct (from UniProt Q6DE08 59-361) (domain or fragment) |  |
| binds | Aurora B (59-361 aa) from X. laevis, phosphorylated at Thr248, of the [Aurora B/IN-box]^IN-ΔC construct (from UniProt Q6DE08 59-361) (domain or fragment) |  |
|  | Aurora B (60-361 aa) from X. laevis, phosphorylated at Thr248, as in [Aurora B/IN-box]^all-P (from UniProt Q6DE08 60-361) (domain or fragment) | binding [2]: binds |
|  | Aurora B (60-361 aa) from X. laevis, unphosphorylated, as in [Aurora B/IN-box]^no-P (from UniProt Q6DE08 60-361) (domain or fragment) | binding [3]: binds |
